Laboratory results reported in PMC5777258, “Phosphorylation of human enhancer filamentation 1 (HEF1) stimulates interaction with Polo-like kinase 1 leading to HEF1 localization to focal adhesions” (The Journal of Biological Chemistry, 2017).
Residue numbers refer to the chain shown, from its start. Names and notes keep the numbering of the source. Results are given in words; binding and its absence hold for the method and conditions named. In cells and extracts the contact can be indirect. Binding can be weak; no strength is given. For part of these data: Sequences can lack the tags named with a protein. Each block holds one binder with its values, some of them ahead of it.

Columns and labels:
[1] = target: GST-Plk1 PBD WT (Polo box domain of Plk1); assay: pull-down; bead-conjugated GST-PBD WT or AM incubated with HeLa total cell lysates (thymidine-treated, asynchronous or nocodazole-treated) for 1 h at 4 °C, washed with TBSN; immunoblot with anti-HEF1 antibody; only the target purified
[2] = target: GST-Plk1 PBD WT (Polo box domain of Plk1); assay: pull-down; bead-conjugated GST-Plk1 PBD WT incubated with lysates of HEK293T cells transfected with FLAG-HEF1 constructs for 1 h at 4 °C, washed with TBSN; immunoblot with anti-FLAG antibody; in Figure 4B also with co-transfected Myc-CK1delta or Myc-CK1epsilon; only the target purified

binding [1]: binds
B1: HEF1, endogenous (protein, UniProt Q14511 1-834)
chain: MKYKNLMARALYDNVPECAEELAFRKGDILTVIEQNTGGLEGWWLCSLHGRQGIVPGNRVKLLIGPMQETASSHEQPASGLMQQTFGQQKLYQVPNPQAAPRDTIYQVPPSYQNQGIYQVPTGHGTQEQEVYQVPPSVQRSIGGTSGPHVGKKVITPVRTGHGYVYEYPSRYQKDVYDIPPSHTTQGVYDIPPSSAKGPVFSVPVGEIKPQGVYDIPPTKGVYAIPPSACRDEAGLREKDYDFPPPMRQAGRPDLRPEGVYDIPPTCTKPAGKDLHVKYNCDIPGAAEPVARRHQSLSPNHPPPQLGQSVGSQNDAYDVPRGVQFLEPPAETSEKANPQERDGVYDVPLHNPPDAKGSRDLVDGINRLSFSSTGSTRSNMSTSSTSSKESSLSASPAQDKRLFLDPDTAIERLQRLQQALEMGVSSLMALVTTDWRCYGYMERHINEIRTAVDKVELFLKEYLHFVKGAVANAACLPELILHNKMKRELQRVEDSHQILSQTSHDLNECSWSLNILAINKPQNKCDDLDRFVMVAKTVPDDAKQLTTTINTNAEALFRPGPGSLHLKNGPESIMNSTEYPHGGSQGQLLHPGDHKAQAHNKALPPGLSKEQAPDCSSSDGSERSWMDDYDYVHLQGKEEFERQQKELLEKENIMKQNKMQLEHHQLSQFQLLEQEITKPVENDISKWKPSQSLPTTNSGVSAQDRQLLCFYYDQCETHFISLLNAIDALFSCVSSAQPPRIFVAHSKFVILSAHKLVFIGDTLTRQVTAQDIRNKVMNSSNQLCEQLKTIVMATKMAALHYPSTTALQEMVHQVTDLSRNAQLFKRSLLEMATF

binding [2]: binds
B2: FLAG-HEF1 T6 (truncation mutant, C-terminal region, aa 710-834) (domain or fragment, UniProt Q14511 710-834)
chain: FYYDQCETHFISLLNAIDALFSCVSSAQPPRIFVAHSKFVILSAHKLVFIGDTLTRQVTAQDIRNKVMNSSNQLCEQLKTIVMATKMAALHYPSTTALQEMVHQVTDLSRNAQLFKRSLLEMATF

binding [2]: binds
B3: FLAG-HEF1 T6 S735A (domain or fragment, UniProt Q14511 710-834)
chain: B2 chain with S26A
